Assay results published in patent EP3118215A1, “ANTI-INFLAMMATORY PEPTIDES, AND USES THEREOF” (Nuritas Limited, priority 2015, dated 2017).
At least one peptide structure holds a part that was inferred or is arguable (an end, a ring closure or a residue). No end group written: not given here.

Assays:
TNFα = TNFα secretion by LPS-stimulated macrophages, ELISA of supernatant; format: cell-based, mouse; settings: for TNFα compared to the vehicle control / TNFα with respect to the vehicle control: 100µM synthetic peptide 24 hours, then LPS 10ng/ml five hours; for TNFα compared to the vehicle control: ##p<0.01 w.r.t. 0.3% DMSO+LPS, Fig. 6A; for TNFα secretion: 100 µM synthetic peptide 24 hours, then LPS 10ng/ml 5 hours, significance w.r.t LPS, Fig. 4A; for TNFα with respect to the vehicle control: 1% DMSO vehicle, ++p<0.01, Fig. 6B
IL-1β = IL-1β secretion by LPS/ATP-stimulated macrophages, ELISA of supernatant; format: cell-based, mouse; settings: 100 µM synthetic peptide 24 hours, then LPS 10ng/ml 5 hours and 5mM ATP 1 hour; significance w.r.t LPS/ATP; Fig. 4B

GYVGLTFPGCPATHQQQFQLFEQR [SP1] was tested, and the “TNFα compared to the vehicle control” value (TNFα) was “reduced”.
In the case of LVDLVIPVNGPGKFEAFDLAK [SP3], the “TNFα compared to the vehicle control” value (TNFα) is reported as “reduced”.
With PGQLQSFLLSGNQNQQNYLSGFSK [SP6] the IL-1β secretion (IL-1β) was “reduced”, the TNFα secretion (TNFα) was “reduced” and the “TNFα compared to the vehicle control” value (TNFα) was “reduced”.
For SKPHTIFLPQHTDADYILVVLSGK [SP5], the “TNFα with respect to the vehicle control” value (TNFα) was “reduced”.
For “KNPQLQDLDIFVNYVEIK [SP4, KNPQLQDLDIFVNYVEIK]”, the IL-1β secretion (IL-1β) was “no significant reduction”, the TNFα secretion (TNFα) was “reduced” and the “TNFα with respect to the vehicle control” value (TNFα) was “reduced”.
RGPQQYAEWQINEK [SP2, RGPQQYAEWQINEK] was tested, and the IL-1β secretion (IL-1β) was “reduced” and the TNFα secretion (TNFα) was “reduced”.
